For one molecule, binding results are on record in paper PMC7093409.

For this test, the target named is T1, ELKS1 (glutamic acid/leucine/lysine/serine-rich protein), endogenous (mouse (endogenous in brain and cultured neurons)) (UniProt Q99MI1).
T1 sequence: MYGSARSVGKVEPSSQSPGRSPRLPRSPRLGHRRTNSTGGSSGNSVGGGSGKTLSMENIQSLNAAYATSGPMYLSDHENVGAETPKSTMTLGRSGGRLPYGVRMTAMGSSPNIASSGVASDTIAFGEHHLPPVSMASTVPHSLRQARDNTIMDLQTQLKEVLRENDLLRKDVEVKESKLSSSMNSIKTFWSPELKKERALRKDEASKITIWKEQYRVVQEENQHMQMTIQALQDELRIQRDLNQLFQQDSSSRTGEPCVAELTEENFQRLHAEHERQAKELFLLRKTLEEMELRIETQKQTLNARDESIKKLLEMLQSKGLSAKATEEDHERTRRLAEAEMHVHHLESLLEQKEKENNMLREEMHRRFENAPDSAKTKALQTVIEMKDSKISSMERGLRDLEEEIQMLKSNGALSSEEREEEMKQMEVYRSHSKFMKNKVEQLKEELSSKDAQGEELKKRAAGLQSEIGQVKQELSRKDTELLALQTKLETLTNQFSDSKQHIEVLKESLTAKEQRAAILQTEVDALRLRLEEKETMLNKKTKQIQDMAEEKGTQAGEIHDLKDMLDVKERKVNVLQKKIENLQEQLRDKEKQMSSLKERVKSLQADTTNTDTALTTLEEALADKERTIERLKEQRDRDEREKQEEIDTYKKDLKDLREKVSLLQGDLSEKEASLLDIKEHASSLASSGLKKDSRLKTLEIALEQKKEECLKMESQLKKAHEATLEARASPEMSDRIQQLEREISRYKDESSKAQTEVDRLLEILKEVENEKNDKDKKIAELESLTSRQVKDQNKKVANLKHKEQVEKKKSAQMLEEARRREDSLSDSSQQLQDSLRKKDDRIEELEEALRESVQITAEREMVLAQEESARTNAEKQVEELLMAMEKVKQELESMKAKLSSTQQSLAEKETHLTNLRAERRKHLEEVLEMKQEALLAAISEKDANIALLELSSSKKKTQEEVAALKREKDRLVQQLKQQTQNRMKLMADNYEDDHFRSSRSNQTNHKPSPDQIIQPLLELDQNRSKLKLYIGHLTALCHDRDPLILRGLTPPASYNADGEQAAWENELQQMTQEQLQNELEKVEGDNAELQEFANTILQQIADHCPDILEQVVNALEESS
Put plainly: co-IP; endogenous ELKS1 and CLASP2, mouse brain; which protein was precipitated is not told in the text (Supplementary Fig. 6s).

Results are given in words; binding and its absence hold for the method and conditions named. In cells and extracts the contact can be indirect. Some results given as binding are weak or reduced against the parent protein; the word gives no strength.

B1: CLASP2 (Cytoplasmic linker associated protein 2), endogenous (protein, UniProt Q8BRT1 1-1286)
chain: MRRLICKRICDYKSFDDEESVDGNRPSSAASAFKVPAPKTPGNPVSSARKPGSAGGPKVGGPSKEGGAGAVDEDDFIKAFTDVPSVQIYSSRELEETLNKIREILSDDKHDWDQRANALKKIRSLLVAGAAQYDCFFQHLRLLDGALKLSAKDLRSQVVREACITVAHLSTVLGNKFDHGAEAIVPTLFNLVPNSAKVMATSGCAAIRFIIRHTHVPRLIPLITSNCTSKSVPVRRRSFEFLDLLLQEWQTHSLERHAAVLVETIKKGIHDADAEARVEARKTYMGLRNHFPGEAETLYNSLEPSYQKSLQTYLKSSGSVASLPQSDRSSSSSQESLNRPFSSKWSTANPSTVAGRVSVGGSKANPLPGSLQRSRSDIDVNAAAGAKAHHAAGQAVRSGRLGAGALNPGSYASLEDTSDKMDGTASDDGRVRAKLSTPLVAVGNAKTDSRGRSRTKMVSQSQPGSRSGSPGRVLTTTALSTVSSGAQRVLVNSASAQKRSKIPRSQGCSREASPSRLSVARSSRIPRPSVSQGCSREASRESSRDTSPVRSFQPLGPGYGISQSSRLSSSVSAMRVLNTGSDVEEAVADALLLGDIRTKKKPARRRYESYGMHSDDDANSDASSACSERSYSSRNGSIPTYMRQTEDVAEVLNRCASSNWSERKEGLLGLQNLLKNQRTLSRIELKRLCEIFTRMFADPHGKVFSMFLETLVDFIQVHKDDLQDWLFVLLTQLLKKMGADLLGSVQAKVQKALDITRESFPNDLQFNILMRFTVDQTQTPSLKVKVAILKYIETLAKQMDPRDFTNSSETRLAVSRVITWTTEPKSSDVRKAAQSVLISLFELNTPEFTMLLGALPKTFQDGATKLLHNHLRNTGNGTQSSMGSPLTRPTPRSPANWSSPLTSPTNTSQNTLSPSAFDYDTENMNSEDIYSSLRGVTEAIQNFSFRSQEDMSEPVRRDPKKEDGDTICSGPGMSDPRAGGDAADGSQPALDNKASLLHSMPLHSSPRSRDYNPYNYSDSISPFNKSALKEAMFDDDADQFPDDLSLDHSDLVAELLKELSNHNERIEERKIALYELMKLTQEESFSVWDEHFKTILLLLLETLGDKEPTIRALALKVLKEILRHQPARFKNYAELTVMKTLEAHKDPHKEVVRSAEEAASVLATSISPEQCIKVLCPIIQTADYPINLAAIKMQTKVIERVSKETLNMLLPEIMPGLIQGYDNSESSVRKACVFCLVAVHAVIGDELKPHLSQLTGSKMKLLNLYIKRAQTGSAGADPTADVSGQS
For B1, the binding entry is given as “binds”.
